Results reported in publication PMC11892609.
No constants are given. Whether binding was seen depends on the method and setting. In cells and extracts the contact can be indirect. Some entries that bind do so weakly or less than the wild type. Tags and fused reporters may be left off the sequences shown.

T1: WT mTMIE-HA-Avi (mouse), Q8K467
T1 chain: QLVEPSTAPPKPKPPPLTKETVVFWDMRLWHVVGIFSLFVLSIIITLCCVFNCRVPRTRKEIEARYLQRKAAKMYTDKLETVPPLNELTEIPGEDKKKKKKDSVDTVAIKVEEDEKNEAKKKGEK

T2: C76SC77S mTMIE-HA-Avi (mouse) (UniProt Q8K467)
T2 sequence: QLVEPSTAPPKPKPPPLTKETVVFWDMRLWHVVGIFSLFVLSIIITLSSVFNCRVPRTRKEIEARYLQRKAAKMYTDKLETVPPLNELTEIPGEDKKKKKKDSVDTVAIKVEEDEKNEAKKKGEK


What was measured:
[1] = target: T1, WT mTMIE-HA-Avi (mouse), Q8K467; assay: pull-down; PK-HEK293T cells expressing Fyn-mTMC2-mCherry with WT or mutant mTMIE-HA-Avi; pull-down with NeutrAvidin beads; western blots; three experiments; settings: remark: other sources report otherwise
[2] = target: T2, C76SC77S mTMIE-HA-Avi (mouse); assay: as above

binding [1]	binding [2]	Binder
binds	–	Fyn-mTMC2-mCherry, Q8R4P4 1-888 (protein) MSPQLKSLDEEGDKSARRPTRKQTSRAACPQDGHRAQSSRKDPAKGSPRPGSSRKKQMEHGSYHKGLQGQKPRKVERSLQGRKKDRRTSLKEQRASPKKEREALRKEAGKQLRKPRSTSLGSSVSTGDSLSEEELAQILEQVEEKKKLITTVRNKPWPMAKKLRELREAQAFVEKYEGALGKGKGKHLYAYRMMMAKKWVKFKRDFDNFKTQCIPWEMKIKDIESHFGSSVASYFIFLRWMYGVNLVLFGLIFGLVIIPEVLMGMPYGSIPRKTVPRAEEERAMDFSVLWDFEGYIKYSALFYGYYNNQRTIGWLRYRLPMAYFMVGVSVFGYSLMIVIRSMASNTQGSTSEGDSDSFTFSFKMFTSWDYLIGNSETADNKYVSITTSFKESIVDEQESNKEGNIHLTRFLRVLANFLILCCLCGSGYLIYFVVKRSQEFSKMQNVSWYERNEVEIVMSLLGMFCPPLFETIAALENYHPRTGLKWQLGRIFALFLGNLYTFLLALMDDVHLKLSNEEKIKNITHWTLFNYYNSSGGNESVPRPPPHPADVPRGSCWETAVGIEFMRLTVSDMLVTYLTILVGDFLRACFVRFMNHCWCWDLEAGFPSYAEFDISGNVLGLIFNQGMIWMGSFYAPGLVGINVLRLLTSMYFQCWAVMSSNVPHERVFKASRSNNFYMGLLLLVLFLSLLPVAYTVMSLPPSFDCGPFSGKNRMYDVLHETIENDFPKFLGKIFAFLANPGLIIPAILLMFLAIYYLNSVSKSLSRANAQLRKKIQALREVEKNHKSIKGKAIVTYSEDTIKNSSKNATQIHLTKEEPTSHSSSQIQTLDKKAQGPHTSSTEGGASPSTSWHHVGSQPPRGRRDSGQPQSQTYTGRSPSGKRTQRPHN
–	binds	Fyn-mTMC2-mCherry (protein, UniProt Q8R4P4 1-888) MSPQLKSLDEEGDKSARRPTRKQTSRAACPQDGHRAQSSRKDPAKGSPRPGSSRKKQMEHGSYHKGLQGQKPRKVERSLQGRKKDRRTSLKEQRASPKKEREALRKEAGKQLRKPRSTSLGSSVSTGDSLSEEELAQILEQVEEKKKLITTVRNKPWPMAKKLRELREAQAFVEKYEGALGKGKGKHLYAYRMMMAKKWVKFKRDFDNFKTQCIPWEMKIKDIESHFGSSVASYFIFLRWMYGVNLVLFGLIFGLVIIPEVLMGMPYGSIPRKTVPRAEEERAMDFSVLWDFEGYIKYSALFYGYYNNQRTIGWLRYRLPMAYFMVGVSVFGYSLMIVIRSMASNTQGSTSEGDSDSFTFSFKMFTSWDYLIGNSETADNKYVSITTSFKESIVDEQESNKEGNIHLTRFLRVLANFLILCCLCGSGYLIYFVVKRSQEFSKMQNVSWYERNEVEIVMSLLGMFCPPLFETIAALENYHPRTGLKWQLGRIFALFLGNLYTFLLALMDDVHLKLSNEEKIKNITHWTLFNYYNSSGGNESVPRPPPHPADVPRGSCWETAVGIEFMRLTVSDMLVTYLTILVGDFLRACFVRFMNHCWCWDLEAGFPSYAEFDISGNVLGLIFNQGMIWMGSFYAPGLVGINVLRLLTSMYFQCWAVMSSNVPHERVFKASRSNNFYMGLLLLVLFLSLLPVAYTVMSLPPSFDCGPFSGKNRMYDVLHETIENDFPKFLGKIFAFLANPGLIIPAILLMFLAIYYLNSVSKSLSRANAQLRKKIQALREVEKNHKSIKGKAIVTYSEDTIKNSSKNATQIHLTKEEPTSHSSSQIQTLDKKAQGPHTSSTEGGASPSTSWHHVGSQPPRGRRDSGQPQSQTYTGRSPSGKRTQRPHN
